Experimental data: PMC6203814
These are yes or no findings as the source states them, for the method shown. Binding seen in cells or lysates may run through a third protein. For part of these data: Binding calls can cover weak binding; strength is not graded here. For part of these data: Where a sequence is shown, tags or fusion partners need not be part of it.

By UniProt entry, the sequences of proteins in these tests, tags left out. Where a name states a change or a piece, a line headed by the entry shows the natural chain unless it says otherwise. Residues count along the entry.
UniProt O60242: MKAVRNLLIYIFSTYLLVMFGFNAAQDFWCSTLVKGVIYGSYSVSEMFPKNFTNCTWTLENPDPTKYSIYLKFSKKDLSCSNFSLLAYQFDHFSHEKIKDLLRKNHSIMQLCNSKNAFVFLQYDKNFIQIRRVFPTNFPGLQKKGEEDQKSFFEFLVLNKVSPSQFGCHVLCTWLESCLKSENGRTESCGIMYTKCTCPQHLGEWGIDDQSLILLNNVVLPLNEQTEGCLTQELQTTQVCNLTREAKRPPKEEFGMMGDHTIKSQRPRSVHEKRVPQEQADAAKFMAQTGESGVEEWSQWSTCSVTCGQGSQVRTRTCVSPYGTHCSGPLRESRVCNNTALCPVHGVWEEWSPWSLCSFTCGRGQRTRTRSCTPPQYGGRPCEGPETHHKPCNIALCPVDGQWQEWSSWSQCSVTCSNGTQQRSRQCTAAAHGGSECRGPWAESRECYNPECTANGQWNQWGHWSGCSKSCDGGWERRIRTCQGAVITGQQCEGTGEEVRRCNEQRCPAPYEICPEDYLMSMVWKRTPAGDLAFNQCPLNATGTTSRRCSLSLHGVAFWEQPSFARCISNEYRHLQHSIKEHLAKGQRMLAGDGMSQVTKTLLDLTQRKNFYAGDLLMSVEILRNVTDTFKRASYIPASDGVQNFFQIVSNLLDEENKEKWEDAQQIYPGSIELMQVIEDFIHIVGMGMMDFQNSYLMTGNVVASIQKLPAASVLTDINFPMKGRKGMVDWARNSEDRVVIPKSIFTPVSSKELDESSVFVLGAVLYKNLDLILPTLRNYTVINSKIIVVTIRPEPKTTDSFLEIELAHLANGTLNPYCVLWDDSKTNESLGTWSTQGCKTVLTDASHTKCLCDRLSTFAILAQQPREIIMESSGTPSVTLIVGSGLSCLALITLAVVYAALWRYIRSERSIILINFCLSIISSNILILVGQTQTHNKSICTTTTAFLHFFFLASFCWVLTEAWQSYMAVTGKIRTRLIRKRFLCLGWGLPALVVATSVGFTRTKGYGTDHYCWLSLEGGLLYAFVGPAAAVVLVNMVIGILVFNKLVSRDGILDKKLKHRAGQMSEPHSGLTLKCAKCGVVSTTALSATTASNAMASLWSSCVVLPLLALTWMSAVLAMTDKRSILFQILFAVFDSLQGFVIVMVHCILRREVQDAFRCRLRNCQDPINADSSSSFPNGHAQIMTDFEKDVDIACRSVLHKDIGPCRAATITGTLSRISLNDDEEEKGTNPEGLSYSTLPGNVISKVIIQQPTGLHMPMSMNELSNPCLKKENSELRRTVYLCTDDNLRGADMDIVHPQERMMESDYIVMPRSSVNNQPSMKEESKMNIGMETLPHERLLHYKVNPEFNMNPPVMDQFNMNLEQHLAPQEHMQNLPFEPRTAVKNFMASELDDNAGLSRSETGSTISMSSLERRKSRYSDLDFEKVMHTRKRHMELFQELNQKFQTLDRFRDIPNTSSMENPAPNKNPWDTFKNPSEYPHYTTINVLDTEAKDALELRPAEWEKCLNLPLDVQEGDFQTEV
UniProt Q8WWQ8, residues 20-2551: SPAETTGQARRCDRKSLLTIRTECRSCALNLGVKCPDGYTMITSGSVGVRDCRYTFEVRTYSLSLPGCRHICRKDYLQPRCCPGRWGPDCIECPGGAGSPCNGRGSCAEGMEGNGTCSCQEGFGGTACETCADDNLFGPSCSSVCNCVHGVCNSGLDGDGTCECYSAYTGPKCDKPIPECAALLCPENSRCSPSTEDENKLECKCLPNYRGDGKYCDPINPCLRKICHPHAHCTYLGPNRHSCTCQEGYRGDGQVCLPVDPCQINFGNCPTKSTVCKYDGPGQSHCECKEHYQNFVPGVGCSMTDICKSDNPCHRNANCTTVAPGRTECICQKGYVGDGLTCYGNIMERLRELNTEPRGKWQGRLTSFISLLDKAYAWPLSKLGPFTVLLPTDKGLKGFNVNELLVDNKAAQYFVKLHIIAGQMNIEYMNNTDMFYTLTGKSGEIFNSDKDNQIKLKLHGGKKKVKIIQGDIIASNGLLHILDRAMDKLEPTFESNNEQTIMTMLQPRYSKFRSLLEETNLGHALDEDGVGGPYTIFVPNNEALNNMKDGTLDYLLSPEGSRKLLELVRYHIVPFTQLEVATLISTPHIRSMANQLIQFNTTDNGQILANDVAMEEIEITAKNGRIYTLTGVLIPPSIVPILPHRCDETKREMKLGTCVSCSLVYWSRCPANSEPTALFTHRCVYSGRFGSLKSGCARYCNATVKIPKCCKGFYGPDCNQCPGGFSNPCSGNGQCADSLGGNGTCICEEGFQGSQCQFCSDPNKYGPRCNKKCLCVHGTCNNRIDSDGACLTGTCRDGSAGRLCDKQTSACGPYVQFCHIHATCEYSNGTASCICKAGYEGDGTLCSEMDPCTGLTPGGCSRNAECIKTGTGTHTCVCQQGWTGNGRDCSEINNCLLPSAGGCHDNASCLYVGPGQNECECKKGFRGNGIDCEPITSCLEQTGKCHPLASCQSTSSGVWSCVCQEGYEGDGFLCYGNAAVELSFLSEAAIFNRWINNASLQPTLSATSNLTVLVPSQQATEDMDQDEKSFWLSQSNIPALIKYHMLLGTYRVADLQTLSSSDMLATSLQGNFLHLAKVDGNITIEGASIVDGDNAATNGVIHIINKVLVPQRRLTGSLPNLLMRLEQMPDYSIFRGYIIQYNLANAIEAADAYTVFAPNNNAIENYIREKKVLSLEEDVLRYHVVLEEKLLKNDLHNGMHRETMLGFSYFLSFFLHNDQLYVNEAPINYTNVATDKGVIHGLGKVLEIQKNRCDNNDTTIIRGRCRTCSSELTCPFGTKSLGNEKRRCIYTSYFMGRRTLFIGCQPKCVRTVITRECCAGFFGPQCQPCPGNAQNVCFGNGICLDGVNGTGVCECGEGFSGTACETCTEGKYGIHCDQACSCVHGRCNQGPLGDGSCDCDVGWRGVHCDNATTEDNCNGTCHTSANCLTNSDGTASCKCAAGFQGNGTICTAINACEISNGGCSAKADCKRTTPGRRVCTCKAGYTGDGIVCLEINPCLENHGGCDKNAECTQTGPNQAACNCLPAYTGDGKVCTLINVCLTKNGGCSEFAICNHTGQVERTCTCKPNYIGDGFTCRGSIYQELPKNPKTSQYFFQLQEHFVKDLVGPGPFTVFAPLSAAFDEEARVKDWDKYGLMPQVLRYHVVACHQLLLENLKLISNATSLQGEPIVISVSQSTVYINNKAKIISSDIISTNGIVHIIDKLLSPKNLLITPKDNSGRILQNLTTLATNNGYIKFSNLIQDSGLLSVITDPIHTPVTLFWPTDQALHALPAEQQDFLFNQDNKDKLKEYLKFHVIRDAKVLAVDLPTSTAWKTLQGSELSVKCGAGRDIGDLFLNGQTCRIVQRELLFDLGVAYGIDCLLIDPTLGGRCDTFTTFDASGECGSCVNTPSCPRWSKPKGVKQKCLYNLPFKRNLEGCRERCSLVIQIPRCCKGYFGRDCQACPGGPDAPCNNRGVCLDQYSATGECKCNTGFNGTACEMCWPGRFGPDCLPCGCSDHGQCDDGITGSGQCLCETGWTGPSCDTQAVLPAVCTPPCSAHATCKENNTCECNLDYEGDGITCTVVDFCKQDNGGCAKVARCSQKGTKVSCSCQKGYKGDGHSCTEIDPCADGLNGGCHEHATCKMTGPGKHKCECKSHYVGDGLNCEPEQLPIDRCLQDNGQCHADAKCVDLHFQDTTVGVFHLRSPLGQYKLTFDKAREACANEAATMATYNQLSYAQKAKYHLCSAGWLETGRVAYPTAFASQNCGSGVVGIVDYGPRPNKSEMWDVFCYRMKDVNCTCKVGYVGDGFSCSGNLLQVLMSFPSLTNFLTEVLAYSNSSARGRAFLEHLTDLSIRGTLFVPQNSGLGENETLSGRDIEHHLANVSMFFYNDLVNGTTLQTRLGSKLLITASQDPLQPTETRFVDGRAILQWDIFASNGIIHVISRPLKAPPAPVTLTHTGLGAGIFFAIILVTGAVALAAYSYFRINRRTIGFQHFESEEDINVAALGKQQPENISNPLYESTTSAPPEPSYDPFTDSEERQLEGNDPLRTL

What was measured:
Flag-BAI3^ECD (human) = Flag-BAI3^ECD (human) (UniProt O60242); assay: co-IP; HEK293T or C2C12 cells expressing V5-Stabilin-2 and a Flag-BAI3 form, lysed in 150 mM NaCl, 50 mM Tris pH 7.5, 1% Nonidet-P40; 500 μg extract, antibody and Protein-A agarose 90 min, three washes
HA-C1qL4^GW = target: T1, HA-C1qL4^GW (UniProt Q4ZJM9); assay: co-IP; anti-HA immunoprecipitation of HA-C1qL4 (WT or GW), blot for V5-tagged soluble BAI3 extracellular domain or its fragments
T1 sequence (chain, two engineered N-linked glycosylation sites in the C1q domain): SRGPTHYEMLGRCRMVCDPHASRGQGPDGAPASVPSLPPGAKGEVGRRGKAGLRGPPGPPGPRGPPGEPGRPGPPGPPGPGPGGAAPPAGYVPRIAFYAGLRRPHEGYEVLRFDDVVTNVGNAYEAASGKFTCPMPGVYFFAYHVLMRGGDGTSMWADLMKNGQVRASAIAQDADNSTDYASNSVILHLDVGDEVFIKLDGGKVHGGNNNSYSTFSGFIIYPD

HA-C1qL4^WT = HA-C1qL4^WT (UniProt Q4ZJM9); assay: as above

Substance: full length V5-Stabilin-2 (from UniProt Q8WWQ8 20-2551) (receptor)
- binding (Flag-BAI3^ECD (human)): binds

Substance: V5-BAI3^ECD (from UniProt O60242) (domain or fragment)
- binding (HA-C1qL4^GW): no binding
- binding (HA-C1qL4^WT): binds
